Reference: patent publication US20130034518A1
No constants are given. Whether binding was seen depends on the method and setting. Binding seen in cells or lysates may run through a third protein. Some binding calls cover weakened binding; strength is not graded here.

Molecular target: rest of the mature (wild-type) human IL-12p40 subunit after cleavage between Lys260 and Arg261 (human) (UniProt P29460)
Assay: co-purification with the recombinant antibody-IL-12 fusion protein; fragment seen only on reducing SDS-PAGE or denaturing RP-HPLC

binding: binds
Binder: REKKDRVFTDKTSATVICRKNASISVRAQDRYYSSSWSEWASVPCS
